Test results taken from article PMC6458711.
Results are given in words; binding and its absence hold for the method and conditions named. Binding seen in cells or lysates may run through a third protein. These calls come from enrichment with a bait or labelling near it, and not all partners need be listed. Sequences can lack the tags named with a protein.

T1: Transketolase (TKT) wild type, Flag-tagged (human) (UniProt P29401)
T1 sequence: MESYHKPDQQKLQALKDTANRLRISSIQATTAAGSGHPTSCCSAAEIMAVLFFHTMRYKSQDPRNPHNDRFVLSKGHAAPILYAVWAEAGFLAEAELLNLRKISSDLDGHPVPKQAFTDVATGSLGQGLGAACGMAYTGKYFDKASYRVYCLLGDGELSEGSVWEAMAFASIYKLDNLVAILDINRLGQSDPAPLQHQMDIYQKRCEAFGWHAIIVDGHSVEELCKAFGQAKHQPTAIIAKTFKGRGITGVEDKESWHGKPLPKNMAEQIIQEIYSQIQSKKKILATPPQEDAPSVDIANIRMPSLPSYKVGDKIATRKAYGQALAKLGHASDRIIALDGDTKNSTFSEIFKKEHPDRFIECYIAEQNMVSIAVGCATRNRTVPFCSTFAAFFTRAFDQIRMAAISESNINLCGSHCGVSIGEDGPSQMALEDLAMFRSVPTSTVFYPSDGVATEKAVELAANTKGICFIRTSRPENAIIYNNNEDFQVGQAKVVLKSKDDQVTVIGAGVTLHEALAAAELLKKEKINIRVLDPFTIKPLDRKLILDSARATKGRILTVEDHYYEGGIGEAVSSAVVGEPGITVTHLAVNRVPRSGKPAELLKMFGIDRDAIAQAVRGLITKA

B1: nucleoporin 160 (NUP160) (protein, UniProt Q12769 1-1436)
chain: MLHLSAAPPAPPPEVTATARPCLCSVGRRGDGGKMAAAGALERSFVELSGAERERPRHFREFTVCSIGTANAVAGAVKYSESAGGFYYVESGKLFSVTRNRFIHWKTSGDTLELMEESLDINLLNNAIRLKFQNCSVLPGGVYVSETQNRVIILMLTNQTVHRLLLPHPSRMYRSELVVDSQMQSIFTDIGKVDFTDPCNYQLIPAVPGISPNSTASTAWLSSDGEALFALPCASGGIFVLKLPPYDIPGMVSVVELKQSSVMQRLLTGWMPTAIRGDQSPSDRPLSLAVHCVEHDAFIFALCQDHKLRMWSYKEQMCLMVADMLEYVPVKKDLRLTAGTGHKLRLAYSPTMGLYLGIYMHAPKRGQFCIFQLVSTESNRYSLDHISSLFTSQETLIDFALTSTDIWALWHDAENQTVVKYINFEHNVAGQWNPVFMQPLPEEEIVIRDDQDPREMYLQSLFTPGQFTNEALCKALQIFCRGTERNLDLSWSELKKEVTLAVENELQGSVTEYEFSQEEFRNLQQEFWCKFYACCLQYQEALSHPLALHLNPHTNMVCLLKKGYLSFLIPSSLVDHLYLLPYENLLTEDETTISDDVDIARDVICLIKCLRLIEESVTVDMSVIMEMSCYNLQSPEKAAEQILEDMITIDVENVMEDICSKLQEIRNPIHAIGLLIREMDYETEVEMEKGFNPAQPLNIRMNLTQLYGSNTAGYIVCRGVHKIASTRFLICRDLLILQQLLMRLGDAVIWGTGQLFQAQQDLLHRTAPLLLSYYLIKWGSECLATDVPLDTLESNLQHLSVLELTDSGALMANRFVSSPQTIVELFFQEVARKHIISHLFSQPKAPLSQTGLNWPEMITAITSYLLQLLWPSNPGCLFLECLMGNCQYVQLQDYIQLLHPWCQVNVGSCRFMLGRCYLVTGEGQKALECFCQAASEVGKEEFLDRLIRSEDGEIVSTPRLQYYDKVLRLLDVIGLPELVIQLATSAITEAGDDWKSQATLRTCIFKHHLDLGHNSQAYEALTQIPDSSRQLDCLRQLVVVLCERSQLQDLVEFPYVNLHNEVVGIIESRARAVDLMTHNYYELLYAFHIYRHNYRKAGTVMFEYGMRLGREVRTLRGLEKQGNCYLAALNCLRLIRPEYAWIVQPVSGAVYDRPGASPKRNHDGECTAAPTNRQIEILELEDLEKECSLARIRLTLAQHDPSAVAVAGSSSAEEMVTLLVQAGLFDTAISLCQTFKLPLTPVFEGLAFKCIKLQFGGEAAQAEAWAWLAANQLSSVITTKESSATDEAWRLLSTYLERYKVQNNLYHHCVINKLLSHGVPLPNWLINSYKKVDAAELLRLYLNYDLLEEAVDLVSEYVDAVLGKGHQYFGIEFPLSATAPMVWLPYSSIDQLLQALGENSANSHNIALSQKILDKLEDYQQKVDKATRDLLYRRTL
B2: nuclear factor kappa B subunit 2 (NFKB2) (protein, UniProt Q00653 1-900)
chain: MESCYNPGLDGIIEYDDFKLNSSIVEPKEPAPETADGPYLVIVEQPKQRGFRFRYGCEGPSHGGLPGASSEKGRKTYPTVKICNYEGPAKIEVDLVTHSDPPRAHAHSLVGKQCSELGICAVSVGPKDMTAQFNNLGVLHVTKKNMMGTMIQKLQRQRLRSRPQGLTEAEQRELEQEAKELKKVMDLSIVRLRFSAFLRASDGSFSLPLKPVISQPIHDSKSPGASNLKISRMDKTAGSVRGGDEVYLLCDKVQKDDIEVRFYEDDENGWQAFGDFSPTDVHKQYAIVFRTPPYHKMKIERPVTVFLQLKRKRGGDVSDSKQFTYYPLVEDKEEVQRKRRKALPTFSQPFGGGSHMGGGSGGAAGGYGGAGGGGSLGFFPSSLAYSPYQSGAGPMGCYPGGGGGAQMAATVPSRDSGEEAAEPSAPSRTPQCEPQAPEMLQRAREYNARLFGLAQRSARALLDYGVTADARALLAGQRHLLTAQDENGDTPLHLAIIHGQTSVIEQIVYVIHHAQDLGVVNLTNHLHQTPLHLAVITGQTSVVSFLLRVGADPALLDRHGDSAMHLALRAGAGAPELLRALLQSGAPAVPQLLHMPDFEGLYPVHLAVRARSPECLDLLVDSGAEVEATERQGGRTALHLATEMEELGLVTHLVTKLRANVNARTFAGNTPLHLAAGLGYPTLTRLLLKAGADIHAENEEPLCPLPSPPTSDSDSDSEGPEKDTRSSFRGHTPLDLTCSTKVKTLLLNAAQNTMEPPLTPPSPAGPGLSLGDTALQNLEQLLDGPEAQGSWAELAERLGLRSLVDTYRQTTSPSGSLLRSYELAGGDLAGLLEALSDMGLEEGVRLLRGPETRDKLPSTAEVKEDSAYGSQSVEQEAEKLGPPPEPPGGLCHGHPQPQVH
B3: nucleoporin 54 (NUP54) (protein, UniProt Q7Z3B4 1-507)
chain: MAFNFGAPSGTSGTAAATAAPAGGFGGFGTTSTTAGSAFSFSAPTNTGTTGLFGGTQNKGFGFGTGFGTTTGTSTGLGTGLGTGLGFGGFNTQQQQQTTLGGLFSQPTQAPTQSNQLINTASALSAPTLLGDERDAILAKWNQLQAFWGTGKGYFNNNIPPVEFTQENPFCRFKAVGYSCMPSNKDEDGLVVLVFNKKETEIRSQQQQLVESLHKVLGGNQTLTVNVEGTKTLPDDQTEVVIYVVERSPNGTSRRVPATTLYAHFEQANIKTQLQQLGVTLSMTRTELSPAQIKQLLQNPPAGVDPIIWEQAKVDNPDSEKLIPVPMVGFKELLRRLKVQDQMTKQHQTRLDIISEDISELQKNQTTSVAKIAQYKRKLMDLSHRTLQVLIKQEIQRKSGYAIQADEEQLRVQLDTIQGELNAPTQFKGRLNELMSQIRMQNHFGAVRSEERYYIDADLLREIKQHLKQQQEGLSHLISIIKDDLEDIKLVEHGLNETIHIRGGVFS

target: T1, Transketolase (TKT) wild type, Flag-tagged (human); assay: affinity purification with mass spectrometry; cross-linking Co-IP/MS: Huh7 stable cells fixed with 0.5% formaldehyde for 8 min at RT; nuclear pellets lysed in 50 mM HEPES/KOH pH 7.5, 500 mM NaCl, 1% Triton X-100, 1 mM EDTA, 0.1% SDS; TKT antibody and Protein G Dynabeads; LC-MS/MS; a protein counted as TKT-WT unique if more than 5-fold over vector control and K6R

| binding | Binder |
| --- | --- |
| binds | B1 |
| binds | B2 |
| binds | B3 |
